PubChem BioAssay AID2551 (National Center for Advancing Translational Sciences (NCATS), 2010)
The campaign covered roughly 310,000 compounds. About 17,000 (5.5%) were called active. The shares of active, inactive and inconclusive entries below differ from those in the screen. Calls come from the whole dose curve; as a rule, active = well fitted inhibition curve with a large enough effect; inconclusive = small, poorly fitted or top-dose-only effect, or effect the other way; inactive = no such curve, though single readings can be large or run the other way. Potencies of inconclusive entries are doubtful fits and often do not repeat.

Protein sequences, listed by entry. Tags and fused reporters are not part of them. Lines headed by an entry give the natural chain unless they say otherwise; changes in a name come on top.
UniProt P51450: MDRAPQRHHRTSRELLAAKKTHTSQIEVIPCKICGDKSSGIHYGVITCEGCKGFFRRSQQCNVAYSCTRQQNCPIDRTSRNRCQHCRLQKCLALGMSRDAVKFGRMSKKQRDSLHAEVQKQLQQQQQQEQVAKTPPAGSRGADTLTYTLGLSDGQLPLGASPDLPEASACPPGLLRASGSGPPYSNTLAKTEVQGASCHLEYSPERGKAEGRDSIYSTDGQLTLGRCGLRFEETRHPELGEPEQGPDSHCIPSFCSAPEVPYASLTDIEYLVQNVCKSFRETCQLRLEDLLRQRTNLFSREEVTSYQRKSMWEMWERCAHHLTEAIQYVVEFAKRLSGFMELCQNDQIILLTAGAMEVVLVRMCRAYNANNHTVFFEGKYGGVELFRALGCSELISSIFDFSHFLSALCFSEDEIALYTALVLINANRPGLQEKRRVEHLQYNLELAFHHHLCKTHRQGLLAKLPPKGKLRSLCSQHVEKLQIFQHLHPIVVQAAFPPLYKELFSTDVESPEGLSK

Each compound was assayed against Nuclear receptor ROR-gamma (Mus musculus) (UniProt P51450) (assay: qHTS for inhibitors of ROR gamma transcriptional activity). Details: Drosophila S2 Gal4-RORgamma UAS-luciferase reporter, 20 h; activity change, negative = inhibition: at 53.6 µM (top of the series).
Procedure, shortened: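 Stable Schneider cell line, Gal4 DNA-binding domain fused to ROR gamma, UAS-luciferase. Cmpd 1 hr RT → CuSO4 700 uM final → 20 hr RT → luciferase reagent 10 min → luminescence.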
% is set by controls: 0 for no effect and ±100 for the full control effect; potency is the fitted concentration of half-maximal effect.
Note: nearly all actives have a fitted effect of over 60% in size.

SMILES	Potency	activity change, negative = inhibition
O=C(Cn1c2c(c(-c3ccccc3)cc1=O)CCCC2)N1CCCCCC1	inconclusive: 31.6 µM [activator, single point]	
CCOc1ccc(OCC)c(NC(=O)CSc2nc3cccnc3n2C)c1	inconclusive: 20 µM [activator, single point]	
COc1ccc(C(=O)COC(=O)C(CCCCN2C(=O)C3C4C=CC(C4)C3C2=O)N2C(=O)C3C4C=CC(C4)C3C2=O)cc1 (stereo unspecified)	inconclusive: 6.31 µM [activator, single point]	
Cc1nn(S(=O)(=O)c2ccccc2)c(C)c1S(=O)(=O)N1CCC(C)CC1		inactive: -19.8%
Cc1csc(NC(=O)c2cc3c(s2)CCCCC3)n1	active: 2.82 µM	
Cc1cccc(NC(=O)N2CCCc3ccccc32)c1C		inactive: 4.28%
COc1ccccc1OCCn1c(=S)[nH]c2ccccc21	active: 10 µM	
Cc1ccc(S(=O)(=O)N(C)CC(=O)O/N=C(\N)c2cccc([N+](=O)[O-])c2)cc1	inconclusive: 14.1 µM [activator, single point]	
CC(C)Cn1c(N)c(C(=O)COC(=O)c2cnc(Cl)c(Cl)c2)c(=O)n(C)c1=O	inconclusive: 12.6 µM [activator, single point]	
Cc1ccc(N=Nc2c(C)[nH]n(C(N)=S)c2=O)cc1C	active: 0.224 µM	
COc1cc(C2NC(=O)NC(C)=C2C(=O)OCC2CCCCC2)ccc1O (stereo unspecified)	inconclusive: 14.1 µM [activator, single point]	
O=C1CCCc2ccccc2N1Cc1cccc(F)c1		inactive: 30%
Fc1ccc(-c2nc3nc4ccccc4nc3n2Cc2ccco2)cc1	inconclusive: 0.251 µM [activator, partial curve, poor fit]	
CCSC1=C(C#N)C(c2cccc(Br)c2)CC(=O)N1 (stereo unspecified)	inconclusive: 0.1 µM [inhibitor, full curve, poor fit]	
CN(C)c1ccc2c(-c3ccccc3)c3ccc(=[N+](C)C)cc-3oc2c1	inconclusive: 5.01 µM [inhibitor, full curve, poor fit]	
CCOc1ccc2nc(NC(=O)CS(=O)(=O)c3ccccc3)sc2c1		inactive: -14.3% [at 0.365 µM]
COC(=O)C(CC(=O)c1ccc(Br)cc1)n1ccnc1 (stereo unspecified)	active: 0.631 µM	
Cc1ccccc1OCC(=O)N/N=C/c1cccc(Oc2ccc([N+](=O)[O-])cc2[N+](=O)[O-])c1	inconclusive: 17.8 µM [activator, single point]	
COc1ccc(S(=O)(=O)N2CCOCC2)cc1NC(=O)Cc1ccc(Cl)c(Cl)c1	inconclusive: 5.01 µM [activator, single point]	
Cc1cc(C)cc(C(=O)NCC(=O)OCC(=O)NCc2ccco2)c1	inconclusive: 1 µM [activator, partial curve, poor fit]	
CCCC(=O)NC(Nc1cc(C(F)(F)F)ccc1Cl)C(Cl)(Cl)Cl (stereo unspecified)	inconclusive: 2.82 µM [inhibitor, single point]	
COc1ccccc1-n1cnnc1SCC(=O)Nc1cccc(S(=O)(=O)N2CCCCC2)c1	inconclusive: 11.2 µM [activator, partial curve]	
CCC(C)[C@H](NC(=O)N1CCn2c1nc1ccccc12)C(=O)NCCc1ccc(OC)c(OC)c1 (stereo partly specified)		inactive: 12%
CN(C)C(=O)c1ccc(OCC(F)(F)F)nc1		inactive: -5.57%

A different layout for six compounds above:
SMILES | Potency | activity change, negative = inhibition
COC(=O)C(CC(=O)c1ccc(Br)cc1)n1ccnc1 (stereo unspecified) | active: 0.631 µM | 
Cc1ccccc1OCC(=O)N/N=C/c1cccc(Oc2ccc([N+](=O)[O-])cc2[N+](=O)[O-])c1 | inconclusive: 17.8 µM [activator, single point] | 
COc1ccc(S(=O)(=O)N2CCOCC2)cc1NC(=O)Cc1ccc(Cl)c(Cl)c1 | inconclusive: 5.01 µM [activator, single point] | 
Cc1cc(C)cc(C(=O)NCC(=O)OCC(=O)NCc2ccco2)c1 | inconclusive: 1 µM [activator, partial curve, poor fit] | 
CCCC(=O)NC(Nc1cc(C(F)(F)F)ccc1Cl)C(Cl)(Cl)Cl (stereo unspecified) | inconclusive: 2.82 µM [inhibitor, single point] | 
COc1ccccc1-n1cnnc1SCC(=O)Nc1cccc(S(=O)(=O)N2CCCCC2)c1 | inconclusive: 11.2 µM [activator, partial curve] | 

Further results

SMILES	Potency	activity change, negative = inhibition
CCCC(=O)Nc1c(-c2ccc(OC)cc2)c(=O)c2ccccc2n1C		inactive: -2.06%
CCC(=O)N1c2ccc(S(=O)(=O)N3CCN(c4ccc([N+](=O)[O-])cc4)CC3)cc2CC1C (stereo unspecified)	inconclusive: 8.91 µM [activator, partial curve]	
CC1(C)CC(=O)C2=C(C1)NC1=C(C(=O)c3ccccc31)C2c1ccccc1 (stereo unspecified)	inconclusive: 14.1 µM [inhibitor, partial curve]	
CCC(C(=O)Nc1ccc(C(=O)O)cc1NC(=O)C(CC)c1ccccc1)c1ccccc1 (stereo unspecified)		inactive: 18.7%
CCC1CCCCN1CCCNC(=O)c1nn(C)c2c1CS(=O)(=O)c1ccccc1-2 (stereo unspecified)		inactive: -22.6%
COc1cc(OC)c(-c2nnc3n(CCc4ccccc4)c(=O)c4ccccc4n23)cc1OC	inconclusive: 12.6 µM [activator, partial curve]	
CC1(C)Cc2c(cnn2-c2ccccc2)C(=O)/C1=N\NC(=O)c1ccccc1O		inactive: 27.8%
COc1cc(C)c(NC(=S)Nc2cccc(Cl)c2C)cc1OC	active: 12.6 µM	
O=C(O)COc1ccc(-c2nccc(-c3cccs3)n2)cc1	active: 5.62 µM	
O=C(NN=C(Cc1ccccc1)Cc1ccccc1)c1ccc(F)cc1	inconclusive: 17.8 µM [inhibitor, single point]	
O=C(CCCSc1nc2ccccc2s1)NCc1ccco1	active: 14.1 µM	
O=C(OC(C(=O)NCc1ccc(F)cc1)c1ccccc1)c1ccco1 (stereo unspecified)		inactive: -10.7%
C/C(=N\NC(=O)c1cc2ccccc2cc1O)c1ccc(C)o1	active: 8.91 µM	
COc1ccc(NS(=O)(=O)c2ccc(NC(=S)NCC3CCCO3)cc2)cc1 (stereo unspecified)	inconclusive: 14.1 µM [activator, single point]	
O=C(CCN1C(=O)c2ccccc2C1=O)NC(=S)Nc1ccccc1Cl	inconclusive: 11.2 µM [inhibitor, single point]	
O=C(CC1(O)C(=O)Nc2cc(Cl)cc(Cl)c21)c1ccccc1O (stereo unspecified)	inconclusive: 14.1 µM [inhibitor, partial curve, poor fit]	
O=S(=O)(c1ccccc1)c1ncc(C(F)(F)F)cc1O	inconclusive: 25.1 µM [inhibitor, single point]	
COc1cc(CNc2ccc(N3CCOCC3)cc2)ccc1OCC(=O)NC(C)(C)C	inconclusive: 11.2 µM [activator, single point]	
Cc1ccc(OCCCC(=O)Nc2nccs2)cc1	inconclusive: 35.5 µM [inhibitor, single point]	
O=c1c(-c2ccco2)[n+]([O-])c2ccccc2n1OCc1ccccc1F		inactive: 0.309%
COc1ccccc1OCCC(=O)OCC(=O)Nc1cc(S(=O)(=O)N(C)C)ccc1Cl	inconclusive: 25.1 µM [inhibitor, single point]	
O=C(C1CC1)N1CCc2cc(S(=O)(=O)NCC3COc4ccccc4O3)ccc21 (stereo unspecified)	inconclusive: 12.6 µM [activator, single point]	
O=C(N/N=C/c1ccccc1OC(=O)c1ccc2c(c1)OCO2)c1cccc(F)c1	active: 12.6 µM	
O=C(/C=C/c1cccc([N+](=O)[O-])c1)Nc1ccc(NC(=O)c2cccs2)cc1		inactive: -23.4%

SMILES	Potency	activity change, negative = inhibition
Cc1ccc2nc(N(CCCN(C)C)C(=O)c3ccc(S(=O)(=O)N4CCc5ccccc5C4)cc3)sc2c1	active: 10 µM	
Cc1ccsc1C(=O)N1CCCC(CO)(Cc2ccccc2)C1 (stereo unspecified)	inconclusive: 20 µM [activator, partial curve, poor fit]	
Cc1ccc(S(=O)(=O)N2CCCCC2)cc1NC(=O)COC(=O)c1ccc2c(c1)OCO2	inconclusive: 14.1 µM [activator, single point]	
Cc1ccc(-n2ccc(=O)c(-c3ccnc(SCc4cccc(Cl)c4)n3)n2)cc1	active: 0.282 µM	
COC(=O)c1ccc(NC(=S)NC2CCCCC2C)cc1 (stereo unspecified)	active: 7.94 µM	
O=C(CCC(=O)N1CCN(Cc2ccc(F)cc2)CC1)Nc1nnc(C2CCCCC2)s1		inactive: 21.2%
Cc1nonc1C1CCCN1C(=O)c1cc(COc2cccc(C(F)(F)F)c2)on1 (stereo unspecified)	inconclusive: 35.5 µM [activator, single point]	
CCNC(=O)N1CCCC(C(=O)c2ccc(-c3ccccc3)cc2)C1 (stereo unspecified)		inactive: 41.7%
CCC(NS(=O)(=O)c1ccc(C)cc1)C(=O)Nc1ccc(NC(C)=O)cc1 (stereo unspecified)		inactive: 7.94%
O=C(Nc1cc(NC(=O)c2ccccc2F)ccc1Cl)c1ccccc1		inactive: 5.81%
CCc1ccccc1N(CC(=O)NCc1ccc(OC)cc1)C(=O)CCC(=O)Nc1ccccn1	inconclusive: 14.1 µM [activator, partial curve, poor fit]	
COc1ccccc1N1C(=O)c2cccc3c(N(C)CCO)ccc(c23)C1=O	inconclusive: 5.62 µM [inhibitor, partial curve]	
O=C(NC(NNc1ccc([N+](=O)[O-])cc1)(C(F)(F)F)C(F)(F)F)c1ccc(F)cc1	inconclusive: 20 µM [activator, single point]	
O=C(c1ccco1)N1CCC2(CCN(Cc3ccncc3)CC2)CC1		inactive: 17.5%
COc1ccccc1-c1noc(CCC(=O)Nc2cc(C(F)(F)F)ccc2Cl)n1	inconclusive: 12.6 µM [inhibitor, single point]	
COc1ccc(C2CC(=O)C(C=NCC(C)C)=C(O)C2)cc1 (stereo unspecified)	inconclusive: 35.5 µM [activator, single point]	
OCCN1CCN(CC/C=C2/c3ccccc3Sc3ccc(C(F)(F)F)cc32)CC1	inconclusive: 35.5 µM [inhibitor, single point]	inactive: 37.4% [at 10 µM]
COc1ccc([C@]23Cc4ccccc4C(O2)c2c(cc(C)n(Cc4ccccc4)c2=O)O3)cc1		inactive: 4.28% [at 10 µM]
O=c1c2ccccc2cnn1Cc1n[nH]c(=S)n1-c1cc(Cl)cc(Cl)c1	inconclusive: 22.4 µM [inhibitor, single point]	
CC(C)[C@H](CO)Nc1nc(Nc2ccc(Cl)c(C(=O)O)c2)c2ncn(C(C)C)c2n1	inconclusive: 15.8 µM [activator, single point]	
O=C(CSc1n[nH]c(-c2cccs2)n1)N1CCCc2ccccc21	inconclusive: 11.2 µM [inhibitor, partial curve]	
Cc1cc(Cl)n2nc(C)c(-c3ccc(Cl)cc3)c2n1	inconclusive: 22.4 µM [inhibitor, partial curve, poor fit]	
